Screen size: about 300,000 compounds; about 5,400 (1.8%) were called active. The shares of active, inactive and inconclusive entries below differ from those in the screen. Calls follow the shape of the full dose curve; tested in HEK293 cells. Potencies of inconclusive entries are doubtful fits and often do not repeat.
Assay: qHTS for inhibitors of binding or entry into cells for Marburg Virus
Details: Marburg virus pseudotyped entry inhibition, cell reporter; activity change, negative = inhibition: at 37.8 µM (top of the series) unless noted
% is scaled to controls: 0 for no effect and ±100 for the full control effect; potency is read from the fitted curve at half-maximal effect.

Question: Which Potency does the source give for `Cc1ccc(COc2ccc(/C=N/NC(=O)CN3CCCCC3)cc2)cc1` here?
Answer: The Potency was inconclusive: 35.5 µM [inhibitor, single point].

Question: Which Potency does the source give for `COc1ccc(CNCCSc2nnnn2C)c(OC)c1OC` here?
Answer: Its Potency is inconclusive: 5.62 µM [inhibitor, single point].

Question: For `O=C(c1ccc(S(=O)(=O)N2CCCC2)cc1)N1CCN(c2ccccc2F)CC1`, which Potency is on record?
Answer: Its Potency is “inactive”.

Question: For `Oc1ccccc1Nc1ncnc2c1oc1ccccc12`, which Potency is on record?
Answer: Its Potency is “inactive”.

Question: Which Potency does the source give for `CC(C)(C)c1ccc(-c2nnc(SCC(=O)Nc3sc4c(c3C#N)CCCC4)o2)cc1` here?
Answer: The Potency was inconclusive: 0.398 µM [activator, partial curve, poor fit].

Question: For `O=C1CCCC=C1[C@H](CCc1ccccc1)OC(=O)c1ccc(Br)cc1`, which Potency is on record?
Answer: Its Potency is inconclusive: 0.422 µM [activator, full curve, poor fit].

Question: For `CCN(C(=O)CSc1nc2ccccc2o1)C1CCS(=O)(=O)C1` (stereo not drawn), which Potency is on record?
Answer: Its Potency is inconclusive: 0.398 µM [inhibitor, partial curve, poor fit].

Question: Which Potency does the source give for `CCN(CC)C(=S)SC1=CCS(=O)(=O)C1` here?
Answer: Its Potency is “inactive”.

Question: With `Cc1c(NC(=O)CSc2nnc(-c3ccncc3)o2)c(=O)n(-c2ccccc2)n1C` as the compound, how does the Potency read?
Answer: The Potency was inconclusive: 17.8 µM [activator, partial curve, poor fit].

Question: Which Potency does the source give for `COc1ccc(CN(CC(=O)NC2CCCC2)C(=O)c2ccc(-c3ccccc3)[nH]2)cc1` here?
Answer: The Potency was inconclusive: 12.6 µM [inhibitor, partial curve, poor fit].

Question: For `COc1ccc(NC(=O)CSc2nc(O)c(Cc3ccccc3)c(=O)[nH]2)cc1`, which Potency is on record?
Answer: Its Potency is “inactive”.

Question: Which Potency does the source give for `COCCOC(=O)C1=C(C)N(c2ccccc2)C(=S)NC1c1ccccc1C(F)(F)F` (stereo not drawn) here?
Answer: The Potency was inconclusive: 9.2 µM [inhibitor, partial curve, poor fit].

Question: For `Cc1ccc(C(=O)N2CC(=O)Nc3ccc(F)cc3C2c2ccccc2)cc1` (stereo not drawn), which Potency is on record?
Answer: Its Potency is inconclusive: 35.5 µM [inhibitor, single point].

Question: With `CCOC(=O)/C(C#N)=C/c1cn(CCOc2ccc(OC)cc2)c2ccccc12` as the compound, how does the Potency read?
Answer: Its Potency is inconclusive: 32.6 µM [inhibitor, partial curve, poor fit].

Question: Which Potency does the source give for `COC(=O)c1cc2occc2n1Cc1nc(-c2ccc(C)cc2)oc1C` here?
Answer: Its Potency is inconclusive: 2.82 µM [inhibitor, full curve, poor fit].

Question: Which Potency does the source give for `Cc1oc(-c2nc3ccccc3n2C)cc1C(=O)c1ccccc1` here?
Answer: The Potency was active: 11.2 µM.

Question: Which Potency does the source give for `COc1ccc(C)cc1NCc1cccc(OC)c1OC` here?
Answer: The Potency was “inactive”.

Question: With `COc1cc(C(=O)/C=C/Nc2ccc(NC(C)=O)cc2)cc(OC)c1OC` as the compound, how does the Potency read?
Answer: The Potency was inconclusive: 1.78 µM [activator, single point].

Question: Which Potency does the source give for `CCN1CCN(c2cc(C)c3cc(NC(=O)Cc4ccccc4OC)ccc3n2)CC1` here?
Answer: The Potency was “inactive”.

Question: Which Potency does the source give for `O=[N+]([O-])c1ccc2nc(CCCc3nc4ccc([N+](=O)[O-])cc4[nH]3)[nH]c2c1` here?
Answer: The Potency was “inactive”.

Question: For `COc1ccccc1C1CCN(Cc2c(C)[nH]c3ccccc23)CC1`, which Potency is on record?
Answer: Its Potency is inconclusive: 25.1 µM [inhibitor, single point].

Question: For `CC(=O)Nc1ccc(S(=O)(=O)Nc2ccc(Cl)cn2)cc1`, which Potency is on record?
Answer: The Potency was inconclusive: 3.55 µM [inhibitor, single point].

Question: With `Cc1ccc(C(=O)NNC(=O)CCC(=O)Nc2cccc(Cl)c2C)cc1` as the compound, how does the Potency read?
Answer: The Potency was inconclusive: 22.4 µM [activator, single point].

Question: Which Potency does the source give for `CCOC(=O)c1sc(=NC(=O)c2ccc(S(=O)(=O)N3CC(C)OC(C)C3)cc2)n(C)c1C` (stereo not drawn) here?
Answer: Its Potency is “inactive”.

Question: For `CN(C)N1C(=O)CC(N2CCCCC2)C1=O` (stereo not drawn), which Potency is on record?
Answer: Its Potency is inconclusive: 14.1 µM [activator, single point].

Question: With `CC(=O)c1ccc(S(=O)(=O)N(C)CC(=O)NCC2CCCCC2)cc1` as the compound, how does the Potency read?
Answer: Its Potency is “inactive”.

Question: For `C(=N/Nc1nc(-c2ccccc2)cc(-c2ccccc2)n1)/c1cccnc1`, which Potency is on record?
Answer: The Potency was inconclusive: 20 µM [inhibitor, partial curve, poor fit].

Question: Which Potency does the source give for `CCC1Oc2ccccc2N(CC(=O)NCCN2C(C)CCCC2C)C1=O` (stereo not drawn) here?
Answer: Its Potency is “inactive”.

Question: With `COc1ccc(C(=O)Nc2ccccc2)cc1S(=O)(=O)Nc1cc(C)on1` as the compound, how does the Potency read?
Answer: Its Potency is “inactive”.

Question: For `CCOC(=O)c1cnn(CCOC(=O)c2ccc(F)cc2)c1NC(=O)c1ccc(F)cc1`, which Potency is on record?
Answer: Its Potency is “inactive”.

Question: For `COc1cc2cc(C(=O)N3CCN(Cc4ccc5c(c4)OCO5)CC3)c(=O)oc2cc1OC`, which Potency is on record?
Answer: Its Potency is inconclusive: 1.26 µM [inhibitor, partial curve, poor fit].

Question: Which Potency does the source give for `O=C(O)CSc1c(-c2cccs2)[nH]c2ccccc12` here?
Answer: Its Potency is “inactive”.

Question: Which Potency does the source give for `CN(Cc1ccc(C(C)(C)C)cc1)C(=O)C1CCN(C(=O)Nc2ccccc2)CC1` here?
Answer: Its Potency is inconclusive: 11.2 µM [inhibitor, partial curve, poor fit].

Question: Which Potency does the source give for `CC(Nc1nc(C(F)(F)F)nc2ccccc12)c1cccs1` (stereo not drawn) here?
Answer: Its Potency is inconclusive: 14.1 µM [inhibitor, single point].

Question: For `CN(CCNC(=O)c1c[nH]c2c1ccc1ccccc12)CCNC(=O)c1c[nH]c2c1ccc1ccccc12`, which Potency is on record?
Answer: Its Potency is inconclusive: 12.6 µM [inhibitor, single point].

Question: For `CCOC(=O)c1c(NC(=O)CN2C(=O)NC3(CCC(C)CC3)C2=O)sc(C(=O)N(C)C)c1C` (stereo not drawn), which Potency is on record?
Answer: The Potency was “inactive”.

Question: Which Potency does the source give for `CCOc1cccc(C(=O)Nc2cccc(-c3nnc(-c4ccccc4)o3)c2)c1` here?
Answer: Its Potency is inconclusive: 29.1 µM [inhibitor, single point].

Question: With `O=C(OCC(=O)N1CCCc2ccccc21)c1c(F)cccc1F` as the compound, how does the Potency read?
Answer: The Potency was inconclusive: 31.6 µM [activator, single point].

Question: With `COc1ccccc1NC(=O)NNC(=O)CN1C(=O)COc2ccccc21` as the compound, how does the Potency read?
Answer: Its Potency is “inactive”.

Question: Which Potency does the source give for `Cc1ccc(NC(=O)CN2C(=O)NC3(CCCc4ccccc43)C2=O)c(Cl)c1` (stereo not drawn) here?
Answer: Its Potency is inconclusive: 0.562 µM [inhibitor, full curve, poor fit].

Question: With `CC(C)n1c(O)c(N=Nc2ccc(Cl)nn2)c2ccccc21` as the compound, how does the Potency read?
Answer: The Potency was inconclusive: 10 µM [activator, single point].

Question: Which Potency does the source give for `CN(Cc1nc(Cc2ccccc2F)no1)Cc1cccc2ncccc12` here?
Answer: Its Potency is “inactive”.

Question: Which Potency does the source give for `c1ccc(COCCN2CCN(CCOCc3ccccc3)CC2)cc1` here?
Answer: The Potency was inconclusive: 4.11 µM [inhibitor, single point].

Question: For `CCc1noc(C)c1C(=O)Nc1cc(Cl)ccc1N1CCCC1`, which Potency is on record?
Answer: The Potency was inconclusive: 0.316 µM [inhibitor, partial curve, poor fit].

Question: With `COc1ccc(NC(=O)CSc2nccn2-c2cccc(OC)c2)cc1` as the compound, how does the Potency read?
Answer: The Potency was inconclusive: 0.562 µM [activator, single point].

Question: Which Potency does the source give for `C[C@@H]1CC[C@H]2C(=O)N(Cc3ccc(Cl)cc3)C[C@@H](O)CN2[C@@H]1c1cccc(Br)c1` here?
Answer: The Potency was inconclusive: 2.66 µM [activator, single point].

Question: Which Potency does the source give for `CC(=O)c1c(C)[nH]c(C(=O)Nc2cccc(S(=O)(=O)N(C)c3ccccc3)c2)c1C` here?
Answer: The Potency was active: 13 µM.

Question: For `CN1CCN(c2ccc(C(=O)c3cn(-c4ccc(F)c(Cl)c4)nn3)cc2)CC1`, which Potency is on record?
Answer: Its Potency is inconclusive: 1.41 µM [activator, partial curve, poor fit].

Question: For `c1cc2c(cc1-c1[nH]ncc1CN1CC3C[C@@H]4CC1C[C@H](C3)C4)OCO2`, which Potency is on record?
Answer: The Potency was “inactive”.

Question: For `CN(CC(=O)Nc1ccc(S(N)(=O)=O)cc1)c1ccccc1`, which activity change, negative = inhibition is on record?
Answer: Its activity change, negative = inhibition is inconclusive: 33% [activator] [at 46.1 µM].

Question: With `CCOc1ccc(N(CC(=O)NCCc2ccccc2)C(=O)CCC(=O)Nc2nccs2)cc1` as the compound, how does the Potency read?
Answer: Its Potency is inconclusive: 7.08 µM [inhibitor, full curve, poor fit].

Question: With `Cc1cccc(C)c1NC(=O)CN(C)C(=O)C1CCN(c2ncnc3sc(C)c(C)c23)CC1` as the compound, how does the Potency read?
Answer: The Potency was inconclusive: 0.501 µM [inhibitor, partial curve, poor fit].

Question: Which Potency does the source give for `Cc1cccc(/C(N)=N/OC(=O)Cc2cccs2)c1` here?
Answer: The Potency was “inactive”.

Question: Which Potency does the source give for `O=C(COC(=O)CC1Sc2ccccc2NC1=O)NCc1ccccc1` (stereo not drawn) here?
Answer: Its Potency is inconclusive: 31.6 µM [activator, single point].

Question: Which Potency does the source give for `Cc1oc(C(C)(C)C)cc1C(=O)Nc1cccc(/C=C\C(=O)O)c1` here?
Answer: Its Potency is inconclusive: 2.82 µM [activator, full curve, poor fit].

Question: With `CN1CC[C@@]2(C)c3cc(O)ccc3N(C)C12` (stereo partly drawn) as the compound, how does the Potency read?
Answer: Its Potency is active: 7.94 µM.

Question: Which Potency does the source give for `O=C(CCN1CCN(Cc2ccccc2)CC1)NNC(=O)Nc1cccc([N+](=O)[O-])c1` here?
Answer: Its Potency is inconclusive: 35.5 µM [activator, partial curve, poor fit].

Question: Which Potency does the source give for `CC(C)(C)N=Cc1cc(-c2ccccc2)sc1O` here?
Answer: The Potency was inconclusive: 7.94 µM [inhibitor, partial curve, poor fit].

Question: For `COc1cccc(N(CC(=O)NC2CC3CCC2C3)S(=O)(=O)c2ccccc2)c1` (stereo not drawn), which Potency is on record?
Answer: Its Potency is inconclusive: 7.94 µM [inhibitor, partial curve, poor fit].

Question: Which Potency does the source give for `C[C@@H]1NC(=O)/C(=C\c2ccccc2Cl)NC1=O` here?
Answer: Its Potency is “inactive”.

Question: Which Potency does the source give for `Clc1cnc(Nc2cccnc2)c(Cl)c1` here?
Answer: The Potency was “inactive”.

Question: Which Potency does the source give for `O=C(COC(=O)CNC(=O)C12CC3CC(CC(C3)C1)C2)NC1CCS(=O)(=O)C1` (stereo not drawn) here?
Answer: Its Potency is inconclusive: 6.31 µM [inhibitor, single point].

Question: Which Potency does the source give for `CCOc1cccc2sc(NC(=O)CCS(=O)(=O)c3ccccc3)nc12` here?
Answer: The Potency was active: 10 µM.

Question: Which Potency does the source give for `COc1ccc(-c2nnc(SCCc3ccccc3)n2N)cc1` here?
Answer: The Potency was “inactive”.

Question: With `Cc1c(C(=O)Nc2ccccc2)c2ccc(C(F)(F)F)cc2n1O` as the compound, how does the Potency read?
Answer: The Potency was inconclusive: 35.5 µM [inhibitor, single point].

Question: For `CCC(=O)Nc1ccc(C(=O)OCC(=O)c2ccc(C)c([N+](=O)[O-])c2)cc1`, which Potency is on record?
Answer: Its Potency is inconclusive: 32.6 µM [inhibitor, single point].

Question: Which Potency does the source give for `CC1CCc2cc(F)ccc2N1C(=O)c1cccs1` (stereo not drawn) here?
Answer: The Potency was inconclusive: 4.47 µM [inhibitor, single point].

Question: With `CC(C)c1ccc(CNC(=O)C(=O)Nc2nccs2)cc1` as the compound, how does the Potency read?
Answer: Its Potency is inconclusive: 31.6 µM [activator, single point].
